US20230133580A1, “MENTHOL-CONTAINING COMPOSITION” (SUNSHO PHARMACEUTICAL CO., LTD., priority 2020, published 2023)
Structures can show the parent of a compound that is named as a salt. Some entries repeat one wording, which the source may state once for all of them.

Assay: Odor comparison test B

Q: Which Rating (l-Menthol 50, solvent 50 pbw) does the source give for CC(=O)OCCCCCCOC(C)=O [1,6-Diacetoxyhexane] here?
A: D (when the average score is 2 points or more but less than 3 points, the sample is rated D)

Q: What about the Rating (l-Menthol 60, solvent 40 pbw) of the same molecule?
A: C (when the average score is 3 points or more but less than 3.5 points, the sample is rated C)

Q: Which Rating (l-Menthol 70, solvent 30 pbw) does the source give for CC(=O)OCCCCCCCCOC(C)=O [1,8-Diacetoxyoctane] here?
A: D (when the average score is 2 points or more but less than 3 points, the sample is rated D)

Q: For OCc1ccccc1 [Benzyl alcohol], which Rating (l-Menthol 80, solvent 20 pbw) is on record?
A: E (when the average score is less than 2 points, the sample is rated E)

Q: With CCOC(=O)/C=C/C(=O)OCC [Diethyl fumarate] as the molecule, how does the Rating (l-Menthol 50, solvent 50 pbw) read?
A: E (when the average score is less than 2 points, the sample is rated E)

Q: And the Rating (l-Menthol 60, solvent 40 pbw)?
A: E (when the average score is less than 2 points, the sample is rated E)

Q: What about the Rating (l-Menthol 70, solvent 30 pbw) of the same molecule?
A: D (when the average score is 2 points or more but less than 3 points, the sample is rated D)

Q: What does the source list for CCOC(=O)CCCCCCCCC(=O)OCC [Diethyl sebacate]?
A: Rating (l-Menthol 60, solvent 40 pbw): A (when the average score is 4 points or more, the sample is rated A); Rating (l-Menthol 70, solvent 30 pbw): A (when the average score is 4 points or more, the sample is rated A)

Q: For CCOC(=O)CCC(=O)OCC [Diethyl succinate], which Rating (l-Menthol 50, solvent 50 pbw) is on record?
A: A (when the average score is 4 points or more, the sample is rated A)

Q: Which results are given for CCCCOCCOCCOCCCC [Diethylene glycol dibutyl ether]?
A: Rating (l-Menthol 50, solvent 50 pbw): D (when the average score is 2 points or more but less than 3 points, the sample is rated D); Rating (l-Menthol 60, solvent 40 pbw): D (when the average score is 2 points or more but less than 3 points, the sample is rated D); Rating (l-Menthol 70, solvent 30 pbw): D (when the average score is 2 points or more but less than 3 points, the sample is rated D)

Q: With CC(C)COC(=O)CCCCC(=O)OCC(C)C [Diisobutyl adipate] as the molecule, how does the Rating (l-Menthol 50, solvent 50 pbw) read?
A: B (when the average score is 3.5 points or more but less than 4 points, the sample is rated B)

Q: Which results are given for CCCCCCCCCCCCCCCC(=O)OCC [Ethyl palmitate]?
A: Rating (l-Menthol 50, solvent 50 pbw): C (when the average score is 3 points or more but less than 3.5 points, the sample is rated C); Rating (l-Menthol 70, solvent 30 pbw): B (when the average score is 3.5 points or more but less than 4 points, the sample is rated B)

Q: With C=C(C)[C@H]1CC=C(C)CC1 [d-Limonene, reference compound] as the molecule, how does the Rating (l-Menthol 80, solvent 20 pbw) read?
A: D (when the average score is 2 points or more but less than 3 points, the sample is rated D)
